Measured values: PubChem BioAssay AID485314 (National Center for Advancing Translational Sciences (NCATS), 2010)
The campaign covered roughly 340,000 compounds. About 4,500 (1.3%) were called active. Inconclusive results, whose numbers are uncertain, are shown with a selection of clear calls. Calls come from the whole dose curve; as a rule, active = well fitted inhibition curve with a large enough effect; inconclusive = small, poorly fitted or top-dose-only effect, or another doubt; inactive = no such curve, though single readings can be large or run the other way. Potencies of inconclusive entries are doubtful fits and often do not repeat.

Biological target: DNA polymerase beta (Homo sapiens) (UniProt P06746)
Assay: qHTS Assay for Inhibitors of DNA Polymerase Beta
Conditions: Pol beta primer extension/strand displacement, fluorescence kinetic; activity change, negative = inhibition: at 114 µM (top of the series)
In short: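 Curves were derived by four-parameter Hill fits of normalized qHTS data. The kinetic fluorescent primer-extension read was taken at 0 and 10 min after 50 nM substrate, following a 15 min room-temperature preincubation of 10 nM enzyme with compounds.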
% is set by controls: 0 for no effect and ±100 for the full control effect; potency is the fitted concentration of half-maximal effect.

SMILES | activity change, negative = inhibition | Potency
CCOC(=O)c1c(NC(=O)c2noc(C)c2[N+](=O)[O-])sc(C(C)=O)c1C | inactive: -8.71% | –
O=C(CSc1nnc(NC(=O)Cc2ccc(F)cc2)s1)NCc1ccco1 | – | inconclusive: 89.1 µM [inhibitor, single point]
O=C(NCc1ccc(Cl)cc1)c1ccc2nc[nH]c2c1 | – | inconclusive: 89.1 µM [inhibitor, single point]
CCCCOc1cccc(C2C(C(=O)c3ccc(C)o3)=C(O)C(=O)N2Cc2ccco2)c1 (configuration not stated) | inconclusive: -58.6% [inhibitor] | –
CC(=O)Nc1ccc(-c2nnc3n(Cc4ccc(C)cc4)c(=O)c4ccccc4n23)cc1 | inactive: 0.122% | –
Cc1ccnc(NC(=O)Cc2ccc([N+](=O)[O-])cc2)c1 | – | inconclusive: 20 µM [inhibitor, partial curve]
CCCCCOc1ccc(Cn2c(=O)oc3ccc(C)cc32)cc1OC | inactive: -27.8% | –
O=C(COC(=O)c1cc(S(=O)(=O)Nc2ccccc2Cl)ccc1O)Nc1nc2ccccc2s1 | – | inconclusive: 39.8 µM [inhibitor, single point]
Cc1c(N2C(=O)c3ccc4c5c(ccc(c35)C2=O)CC4)c(=O)n(-c2ccccc2)n1C | – | active: 5.01 µM
COc1ccc(NS(=O)(=O)c2cc3c(cc2C)N(C(C)=O)CCO3)cc1OC | inactive: -17.8% | –
Cc1cc(C(F)(F)F)c(C#N)c(SCC(=O)Nc2nc3cc(Br)ccc3s2)n1 | – | inconclusive: 56.2 µM [inhibitor, partial curve, poor fit]
CC(C)Cn1c(/C=C/c2ccco2)nc2ccccc21 | – | active: 28.2 µM
O=C(CCc1nnc(Cc2ccc(-c3ccccc3)cc2)o1)NCCc1ccccn1 | – | inconclusive: 1.41 µM [inhibitor, full curve]
COCCNC(=S)N(CCc1c(C)[nH]c2ccc(F)cc12)Cc1ccc(C)cc1 | – | inconclusive: 89.1 µM [inhibitor, single point]
COCCNC(=O)C(c1ccco1)N(C(=O)Cn1nnc2ccccc21)c1cc(C)ccc1C (configuration not stated) | – | inconclusive: 89.1 µM [inhibitor, single point]
CC(C)=CCC/C(C)=C/CC/C(C)=C/CSc1ccccc1C(=O)O | – | inconclusive: 31.6 µM [inhibitor, single point]
CCOC(=O)c1cc(CC)sc1/N=C/C1C(=O)CC(C)(C)CC1=O | – | inconclusive: 89.1 µM [inhibitor, single point]
[O-][N+]1=c2ccc(Nc3ccccc3)cc2=NC12CCCCC2 | – | inconclusive: 1.12 µM [inhibitor, partial curve]
COc1cc(C2/C(=C(\O)c3ccc4c(c3)OCCO4)C(=O)C(=O)N2CCN2CCOCC2)cc(OC)c1OC (configuration not stated) | inactive: 11.8% | –
COc1ccccc1NC(=O)Nc1ccnn1C1CCN(C(=O)c2ccccn2)CC1 | inactive: 19.1% | –
O=C1CC(c2ccco2)Cc2nc(N3CCc4ccccc4C3)ncc21 (configuration not stated) | – | inconclusive: 39.8 µM [inhibitor, single point]

Ordered by number of heavy atoms (low to high): 3 of the compounds above
SMILES | activity change, negative = inhibition | Potency
CCCCCOc1ccc(Cn2c(=O)oc3ccc(C)cc32)cc1OC | inactive: -27.8% | –
O=C(CSc1nnc(NC(=O)Cc2ccc(F)cc2)s1)NCc1ccco1 | – | inconclusive: 89.1 µM [inhibitor, single point]
CC(=O)Nc1ccc(-c2nnc3n(Cc4ccc(C)cc4)c(=O)c4ccccc4n23)cc1 | inactive: 0.122% | –

Carrying on.

SMILES | activity change, negative = inhibition | Potency
COc1ccc(NC(=O)c2nnn(CC(=O)Nc3c(C)cc(C)cc3C)c2N)cc1OC | inactive: 14.2% | –
CCN(CC)S(=O)(=O)c1ccc2c(c1)nc(CN(C)C(=O)Nc1ccc(F)cc1)n2C | inactive: -10.9% | –
N#CC1=C2N=C(N)c3ccccc3N2C2=C(C(=O)CCC2)C1c1ccc(Cl)cc1 (configuration not stated) | – | inconclusive: 79.4 µM [inhibitor, single point]
Cc1cc(C)c(S(=O)(=O)N2CCCCCC2)cc1Br | – | inconclusive: 15.8 µM [inhibitor, partial curve]
CCOC(=O)c1c(CC(C)C)csc1/N=C/C1=C(O)CCCC1=O | – | inconclusive: 14.1 µM [inhibitor, partial curve, poor fit]
CCCOc1ccc(N2C(=O)C/C(=C\c3ccccc3)C2=O)cc1 | – | inconclusive: 44.7 µM [inhibitor, single point]
COC(=O)c1ccccc1NC(=O)COC(=O)/C=C/c1ccco1 | – | inconclusive: 25.1 µM [inhibitor, full curve]
Nc1ccc(C(=O)N/N=C/c2c[nH]c3ccccc23)cc1 | – | inconclusive: 79.4 µM [inhibitor, partial curve]
CSc1nccc(-c2c(-c3ccc(Cl)cc3)noc2C)n1 | – | inconclusive: 3.55 µM [inhibitor, partial curve]
CCCCC1=CC2=CC(=O)C(C)(OC(=O)CC)C(=O)C2=CN1Cc1ccc(OC)cc1 (configuration not stated) | inactive: -8.2% | –
Cc1sc(NC(=O)C2CC=CCC2C(=O)O)c(C(=O)OC(C)C)c1C (configuration not stated) | – | inconclusive: 25.1 µM [inhibitor, full curve]
N#CC1=C2SCN(C3CCCCC3)CN2C(=O)CC1c1ccc(Br)cc1 (configuration not stated) | – | inconclusive: 89.1 µM [inhibitor, single point]
O=C(Oc1cccc(NC(=O)c2cccs2)c1)c1cccc(S(=O)(=O)N2CCCC2)c1 | – | inconclusive: 89.1 µM [inhibitor, single point]
Cc1ccc(OCC(=O)N2N=C(c3ccc(Cl)cc3)CC2c2ccco2)c([N+](=O)[O-])n1 (configuration not stated) | – | inconclusive: 25.1 µM [inhibitor, single point]
O=C(CCn1cnc2ccccc2c1=O)Nc1cccc(Cl)c1Cl | – | inconclusive: 0.794 µM [inhibitor, full curve, poor fit]
O=C(/C=C/c1ccc(F)cc1)Nc1ccc(S(=O)(=O)N2CCOCC2)cc1 | – | inconclusive: 12.6 µM [inhibitor, partial curve, poor fit]
COc1cc(NC(=O)c2cccs2)ccc1NC(=O)c1ccccc1Cl | – | inconclusive: 89.1 µM [inhibitor, single point]
Cc1ccccc1N1CCN(Cc2ccc([N+](=O)[O-])o2)CC1 | – | inconclusive: 44.7 µM [inhibitor, partial curve, poor fit]
Cc1ccc(C2CC(=O)N3CN(c4ccc(Br)cc4)CSC3=C2C#N)o1 (configuration not stated) | – | active: 31.6 µM
O=C(O)C1CCc2sc3[nH]c(=S)n(-c4ccccc4)c(=O)c3c21 (configuration not stated) | – | inconclusive: 39.8 µM [inhibitor, partial curve]
COc1ccc2[nH]c(=O)c(C(c3nnnn3C3CCCC3)N(C)C3CCCCC3)cc2c1 (configuration not stated) | – | inconclusive: 63.1 µM [inhibitor, partial curve, poor fit]
